Source: the supplement of paper PMC10849652
The other results are listed elsewhere or left out.

Chains of the proteins cited; added tags and fusions are not shown. Lines headed by an entry give the natural chain unless they say otherwise; changes in a name come on top.
UniProt Q09472, whole entry, looked up: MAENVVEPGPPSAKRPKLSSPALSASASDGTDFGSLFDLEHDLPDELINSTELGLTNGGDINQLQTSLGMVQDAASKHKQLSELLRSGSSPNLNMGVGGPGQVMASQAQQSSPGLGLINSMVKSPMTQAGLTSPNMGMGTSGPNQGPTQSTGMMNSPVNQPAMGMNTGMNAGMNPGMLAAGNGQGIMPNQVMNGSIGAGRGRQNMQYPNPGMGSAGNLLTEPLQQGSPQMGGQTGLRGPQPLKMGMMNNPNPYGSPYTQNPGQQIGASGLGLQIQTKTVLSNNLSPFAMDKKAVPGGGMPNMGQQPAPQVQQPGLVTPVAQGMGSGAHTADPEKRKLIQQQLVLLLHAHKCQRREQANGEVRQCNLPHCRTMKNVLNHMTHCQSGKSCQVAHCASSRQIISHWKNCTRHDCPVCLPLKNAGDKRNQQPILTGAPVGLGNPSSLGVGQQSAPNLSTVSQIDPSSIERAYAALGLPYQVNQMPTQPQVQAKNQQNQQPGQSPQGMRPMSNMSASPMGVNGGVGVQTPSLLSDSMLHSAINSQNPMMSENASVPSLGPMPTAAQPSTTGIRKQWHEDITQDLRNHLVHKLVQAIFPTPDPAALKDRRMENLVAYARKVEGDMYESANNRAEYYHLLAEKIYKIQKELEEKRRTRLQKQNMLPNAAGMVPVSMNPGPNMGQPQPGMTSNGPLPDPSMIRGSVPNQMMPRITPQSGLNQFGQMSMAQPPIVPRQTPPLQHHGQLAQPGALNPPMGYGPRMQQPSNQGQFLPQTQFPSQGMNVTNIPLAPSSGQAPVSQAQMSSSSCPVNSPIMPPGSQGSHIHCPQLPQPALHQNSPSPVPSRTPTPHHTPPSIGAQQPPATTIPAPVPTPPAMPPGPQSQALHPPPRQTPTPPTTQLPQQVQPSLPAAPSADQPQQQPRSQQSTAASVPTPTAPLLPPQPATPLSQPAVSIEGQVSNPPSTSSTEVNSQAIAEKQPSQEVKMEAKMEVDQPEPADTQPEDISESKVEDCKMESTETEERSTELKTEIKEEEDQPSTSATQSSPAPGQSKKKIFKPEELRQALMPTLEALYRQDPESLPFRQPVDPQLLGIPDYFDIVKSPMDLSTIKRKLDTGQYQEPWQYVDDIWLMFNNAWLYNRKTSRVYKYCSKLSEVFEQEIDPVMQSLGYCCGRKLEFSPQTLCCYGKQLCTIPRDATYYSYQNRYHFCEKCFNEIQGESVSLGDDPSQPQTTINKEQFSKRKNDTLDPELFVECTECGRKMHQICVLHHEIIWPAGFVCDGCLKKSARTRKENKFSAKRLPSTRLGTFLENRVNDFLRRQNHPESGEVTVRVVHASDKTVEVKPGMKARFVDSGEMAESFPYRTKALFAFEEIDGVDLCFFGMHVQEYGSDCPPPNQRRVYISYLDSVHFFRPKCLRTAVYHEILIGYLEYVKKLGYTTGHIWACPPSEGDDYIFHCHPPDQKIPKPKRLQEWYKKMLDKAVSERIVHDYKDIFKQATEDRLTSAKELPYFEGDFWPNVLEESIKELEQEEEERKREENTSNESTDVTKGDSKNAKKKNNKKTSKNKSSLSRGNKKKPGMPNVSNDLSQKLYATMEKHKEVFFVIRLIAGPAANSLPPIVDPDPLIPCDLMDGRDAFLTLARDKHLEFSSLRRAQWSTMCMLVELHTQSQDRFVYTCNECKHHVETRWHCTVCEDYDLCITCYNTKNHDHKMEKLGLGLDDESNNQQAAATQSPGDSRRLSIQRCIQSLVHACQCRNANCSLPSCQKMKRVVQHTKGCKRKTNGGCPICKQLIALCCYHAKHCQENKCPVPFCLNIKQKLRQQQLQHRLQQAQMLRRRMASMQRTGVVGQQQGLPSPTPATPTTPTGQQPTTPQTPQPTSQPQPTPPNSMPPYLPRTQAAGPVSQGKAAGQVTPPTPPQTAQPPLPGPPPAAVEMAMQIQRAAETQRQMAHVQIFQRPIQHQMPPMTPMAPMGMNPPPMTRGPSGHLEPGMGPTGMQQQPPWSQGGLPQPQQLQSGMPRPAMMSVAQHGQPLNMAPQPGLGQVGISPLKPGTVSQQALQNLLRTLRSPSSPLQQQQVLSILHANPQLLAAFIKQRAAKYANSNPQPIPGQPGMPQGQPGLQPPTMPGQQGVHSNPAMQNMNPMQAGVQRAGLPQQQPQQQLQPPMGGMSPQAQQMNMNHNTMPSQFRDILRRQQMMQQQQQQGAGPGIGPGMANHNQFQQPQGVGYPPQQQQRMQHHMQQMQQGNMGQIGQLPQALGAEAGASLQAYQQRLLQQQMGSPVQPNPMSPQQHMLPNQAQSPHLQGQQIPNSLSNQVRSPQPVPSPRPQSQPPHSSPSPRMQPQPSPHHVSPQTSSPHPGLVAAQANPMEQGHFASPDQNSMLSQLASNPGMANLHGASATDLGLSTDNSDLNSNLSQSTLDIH
UniProt Q96RQ1: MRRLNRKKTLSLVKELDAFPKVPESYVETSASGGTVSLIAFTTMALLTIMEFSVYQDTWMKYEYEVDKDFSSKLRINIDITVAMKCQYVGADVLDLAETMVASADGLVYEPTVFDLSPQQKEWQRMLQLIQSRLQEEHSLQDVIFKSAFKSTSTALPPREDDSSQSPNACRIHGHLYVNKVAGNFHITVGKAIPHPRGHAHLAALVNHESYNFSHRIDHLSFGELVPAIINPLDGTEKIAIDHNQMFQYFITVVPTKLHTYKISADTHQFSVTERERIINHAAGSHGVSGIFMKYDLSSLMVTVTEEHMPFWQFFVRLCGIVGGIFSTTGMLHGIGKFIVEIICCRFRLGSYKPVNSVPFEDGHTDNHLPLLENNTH
UniProt O75616: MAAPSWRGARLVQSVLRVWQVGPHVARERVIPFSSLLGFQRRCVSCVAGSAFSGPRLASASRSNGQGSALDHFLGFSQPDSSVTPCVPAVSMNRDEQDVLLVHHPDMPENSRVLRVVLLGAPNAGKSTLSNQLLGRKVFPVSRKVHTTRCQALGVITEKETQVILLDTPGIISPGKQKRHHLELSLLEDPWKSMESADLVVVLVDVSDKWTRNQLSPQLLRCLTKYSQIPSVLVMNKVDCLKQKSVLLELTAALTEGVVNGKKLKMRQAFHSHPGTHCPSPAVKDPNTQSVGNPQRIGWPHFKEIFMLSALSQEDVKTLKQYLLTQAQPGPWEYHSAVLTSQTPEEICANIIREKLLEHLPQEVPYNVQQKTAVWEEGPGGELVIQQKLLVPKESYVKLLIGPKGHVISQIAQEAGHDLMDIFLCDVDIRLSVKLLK
UniProt Q9BV81: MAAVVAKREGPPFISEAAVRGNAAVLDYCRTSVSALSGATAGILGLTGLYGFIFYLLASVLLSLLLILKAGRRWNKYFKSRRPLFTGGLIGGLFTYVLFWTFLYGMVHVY
UniProt P41214: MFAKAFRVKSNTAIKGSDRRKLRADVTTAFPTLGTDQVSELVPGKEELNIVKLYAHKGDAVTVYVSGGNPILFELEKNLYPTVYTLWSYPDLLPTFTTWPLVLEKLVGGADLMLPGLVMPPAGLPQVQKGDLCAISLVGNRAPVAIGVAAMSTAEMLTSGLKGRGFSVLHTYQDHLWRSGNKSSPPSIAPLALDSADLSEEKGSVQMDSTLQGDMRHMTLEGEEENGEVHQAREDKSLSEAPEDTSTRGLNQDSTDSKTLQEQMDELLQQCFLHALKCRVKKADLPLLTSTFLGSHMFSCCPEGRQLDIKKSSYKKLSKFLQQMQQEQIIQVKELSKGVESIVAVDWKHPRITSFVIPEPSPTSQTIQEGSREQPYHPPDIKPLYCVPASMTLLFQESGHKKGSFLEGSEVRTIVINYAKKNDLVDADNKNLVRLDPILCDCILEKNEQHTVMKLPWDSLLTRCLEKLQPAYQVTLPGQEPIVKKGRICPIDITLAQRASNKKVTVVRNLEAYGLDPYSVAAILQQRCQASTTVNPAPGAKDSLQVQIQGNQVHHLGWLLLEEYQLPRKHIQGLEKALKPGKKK
UniProt P41091, whole entry, looked up: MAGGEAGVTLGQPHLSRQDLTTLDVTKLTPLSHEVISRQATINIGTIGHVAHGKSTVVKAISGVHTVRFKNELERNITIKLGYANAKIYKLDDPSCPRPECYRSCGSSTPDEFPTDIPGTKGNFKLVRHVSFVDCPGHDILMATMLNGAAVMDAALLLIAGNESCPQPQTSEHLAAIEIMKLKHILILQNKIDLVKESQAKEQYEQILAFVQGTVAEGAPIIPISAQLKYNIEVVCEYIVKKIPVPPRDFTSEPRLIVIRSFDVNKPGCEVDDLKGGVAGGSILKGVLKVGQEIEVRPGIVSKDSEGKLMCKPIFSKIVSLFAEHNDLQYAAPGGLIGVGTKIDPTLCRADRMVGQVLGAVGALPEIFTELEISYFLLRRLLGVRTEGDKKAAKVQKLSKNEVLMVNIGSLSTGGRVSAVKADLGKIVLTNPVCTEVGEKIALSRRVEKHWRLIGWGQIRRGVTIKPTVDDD
UniProt Q15723: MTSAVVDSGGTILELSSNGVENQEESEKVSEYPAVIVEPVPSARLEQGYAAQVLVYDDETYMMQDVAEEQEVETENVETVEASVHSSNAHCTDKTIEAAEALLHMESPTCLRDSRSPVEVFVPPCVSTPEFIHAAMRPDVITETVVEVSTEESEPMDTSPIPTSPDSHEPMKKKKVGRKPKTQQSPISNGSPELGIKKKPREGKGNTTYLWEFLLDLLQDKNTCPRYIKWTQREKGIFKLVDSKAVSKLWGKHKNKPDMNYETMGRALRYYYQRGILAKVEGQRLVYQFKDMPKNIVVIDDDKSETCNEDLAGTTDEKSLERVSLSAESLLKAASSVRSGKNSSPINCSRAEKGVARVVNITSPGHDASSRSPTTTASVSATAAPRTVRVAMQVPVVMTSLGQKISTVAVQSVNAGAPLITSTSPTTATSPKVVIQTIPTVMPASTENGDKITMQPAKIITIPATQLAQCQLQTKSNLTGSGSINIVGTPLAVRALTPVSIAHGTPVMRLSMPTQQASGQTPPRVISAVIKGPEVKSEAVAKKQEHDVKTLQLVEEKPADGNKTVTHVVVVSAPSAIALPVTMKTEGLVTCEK
UniProt P06730, whole entry, looked up: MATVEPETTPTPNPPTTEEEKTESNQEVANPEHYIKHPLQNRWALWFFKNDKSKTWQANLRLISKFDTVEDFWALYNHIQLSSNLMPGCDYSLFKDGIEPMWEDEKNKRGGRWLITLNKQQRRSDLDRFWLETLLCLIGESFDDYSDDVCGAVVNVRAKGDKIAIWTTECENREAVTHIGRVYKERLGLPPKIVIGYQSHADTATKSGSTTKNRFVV
UniProt Q9UI10, whole entry, looked up: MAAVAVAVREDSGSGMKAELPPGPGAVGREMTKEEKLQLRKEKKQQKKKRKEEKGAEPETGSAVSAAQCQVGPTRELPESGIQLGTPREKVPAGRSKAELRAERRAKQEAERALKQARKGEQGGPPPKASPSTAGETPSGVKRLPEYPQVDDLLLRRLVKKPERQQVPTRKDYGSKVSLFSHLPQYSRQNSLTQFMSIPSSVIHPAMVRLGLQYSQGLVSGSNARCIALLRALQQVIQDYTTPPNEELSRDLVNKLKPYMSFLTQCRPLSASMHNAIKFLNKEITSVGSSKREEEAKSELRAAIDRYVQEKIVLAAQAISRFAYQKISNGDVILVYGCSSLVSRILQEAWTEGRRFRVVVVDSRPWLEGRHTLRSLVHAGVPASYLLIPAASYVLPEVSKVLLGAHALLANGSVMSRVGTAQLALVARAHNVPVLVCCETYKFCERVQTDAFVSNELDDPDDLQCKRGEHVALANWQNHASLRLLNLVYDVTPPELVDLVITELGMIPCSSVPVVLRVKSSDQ
UniProt Q6IA86: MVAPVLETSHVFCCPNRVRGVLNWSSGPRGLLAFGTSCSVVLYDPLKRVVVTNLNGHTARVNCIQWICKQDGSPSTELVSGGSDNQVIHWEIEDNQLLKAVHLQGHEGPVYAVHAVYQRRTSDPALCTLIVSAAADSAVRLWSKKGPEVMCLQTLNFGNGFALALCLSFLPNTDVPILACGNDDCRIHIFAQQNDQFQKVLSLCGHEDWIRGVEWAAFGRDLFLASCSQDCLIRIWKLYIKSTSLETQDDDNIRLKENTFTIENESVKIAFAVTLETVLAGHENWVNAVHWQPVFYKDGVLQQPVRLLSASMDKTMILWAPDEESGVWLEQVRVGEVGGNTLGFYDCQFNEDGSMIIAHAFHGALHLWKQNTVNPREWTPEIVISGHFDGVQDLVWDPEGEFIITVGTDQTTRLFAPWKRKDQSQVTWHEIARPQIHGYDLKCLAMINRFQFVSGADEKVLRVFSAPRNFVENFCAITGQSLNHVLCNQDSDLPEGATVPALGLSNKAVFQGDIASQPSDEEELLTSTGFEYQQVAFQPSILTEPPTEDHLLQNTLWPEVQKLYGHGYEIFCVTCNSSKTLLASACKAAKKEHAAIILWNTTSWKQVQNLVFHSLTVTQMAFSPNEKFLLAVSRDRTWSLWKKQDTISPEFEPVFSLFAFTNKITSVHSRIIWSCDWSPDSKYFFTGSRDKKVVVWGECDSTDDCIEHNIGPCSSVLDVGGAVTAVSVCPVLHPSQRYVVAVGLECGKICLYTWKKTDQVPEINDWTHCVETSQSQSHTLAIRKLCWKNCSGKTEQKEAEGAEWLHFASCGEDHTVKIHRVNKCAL

compound: CNC(=O)C1=CC=CC=C1NC2=NC(=NC=C2Cl)NC3=C(C=C(C=C3)N4CCOCC4)OC; assay: log2 fold change, soluble protein after heating vs DMSO (PISA); higher = thermal stabilisation; K562 lysate, 10 uM; active = over 0.2 and 3.5 SD of the protein, either way, in both replicates (recomputed)
Summary of the method: (§1)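 The values are log-two fold changes in thermal stability compared with solvent controls and come from duplicates. They were obtained by TMTpro 16plex LC-MS/MS, with channel sums equalised, on the supernatant after 21,000xg for 90 min. That supernatant came from crude K562 extract at 1 mg/mL protein treated with 10 μM compound for 30 min, heated for 3 min across 48°C-58°C, pooled and brought to 0.5% NP-40 at 4°C.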

Row | Target | log2 fold change
1 | EIF3G (UniProt K7ER90) | inactive: 0.015
2 | EP300 (UniProt Q09472) | inactive: -0.026
3 | ERGIC2 (UniProt Q96RQ1) | inactive: -0.028
4 | ERAL1 (UniProt O75616) | inactive: -0.03
5 | EIF3F (UniProt O00303) | inactive: 0.028
6 | EMC3 (UniProt Q9P0I2) | inactive: 0.037
7 | ELMO1 (UniProt Q92556) | inactive: -0.022
8 | ERC1 (UniProt X6RLX0) | inactive: 0.006
9 | EIF3B isoform 2 (UniProt P55884) | inactive: 0.01
10 | ERI1 (UniProt Q8IV48) | inactive: 0.026
11 | ENY2 (UniProt Q9NPA8) | inactive: 0.016
12 | EMC7 (UniProt Q9NPA0) | inactive: -0.037
13 | EMC6 (UniProt Q9BV81) | inactive: 0.003
14 | EIF2D (UniProt P41214) | inactive: 0.003
15 | EIF2S3 (UniProt P41091) | inactive: 0.001
16 | ELF2 (UniProt Q15723) | inactive: 0.024
17 | ERH (UniProt P84090) | inactive: -0.001
18 | EPHX2 (UniProt P34913) | inactive: -0.023

Row | Target | log2 fold change
19 | EPS15L1 isoform 2 (UniProt Q9UBC2) | inactive: -0.008
20 | ERCC4 (UniProt Q92889) | inactive: 0.058
21 | ERCC3 (UniProt P19447) | inactive: 0.006
22 | EPPK1 (UniProt P58107) | inactive: -0.027
23 | EIF6 (UniProt P56537) | inactive: 0.016
24 | ENSA isoform 3 (UniProt O43768) | inactive: -0.012
25 | EMP3 (UniProt P54852) | inactive: 0.067
26 | EIF4E isoform 2 (UniProt P06730) | inactive: -0.01
27 | ENTPD5 (UniProt O75356) | inactive: 0.095
28 | EPRS (UniProt P07814) | inactive: 0.002
29 | EIF2B4 isoform 2 (UniProt Q9UI10) | inactive: 0.013
30 | EMC4 (UniProt Q5J8M3) | inactive: 0.054
31 | ELP2 isoform 6 (UniProt Q6IA86) | inactive: 0.008
32 | ENGASE (UniProt Q8NFI3) | inactive: 0.043
33 | ENPP3 (UniProt O14638) | inactive: -0.006
34 | ENDOG (UniProt Q14249) | inactive: -0.019
35 | EPN1 (UniProt Q9Y6I3) | inactive: -0.013
36 | EMD (UniProt P50402) | inactive: -0.029

compound: CNC(=O)c1ccc(Nc2ncc(C(F)(F)F)c(NCc3nccnc3N(C)S(C)(=O)=O)n2)cc1 [defactinib]; assay: as above
Summary of the method: as §1

Row | Target | log2 fold change
37 | EIF3G (UniProt K7ER90) | inactive: -0.162
38 | EP300 (UniProt Q09472) | inactive: 0.066
39 | ERGIC2 (UniProt Q96RQ1) | inactive: 0.057
40 | ERAL1 (UniProt O75616) | inactive: 0.027
41 | EIF3F (UniProt O00303) | inactive: 0.025
42 | EMC3 (UniProt Q9P0I2) | inactive: -0.009
43 | ELMO1 (UniProt Q92556) | inactive: 0.046
44 | ERC1 (UniProt X6RLX0) | inactive: -0.005
45 | EIF3B isoform 2 (UniProt P55884) | inactive: -0.008
46 | ERI1 (UniProt Q8IV48) | inactive: 0.004
47 | ENY2 (UniProt Q9NPA8) | inactive: 0.096
48 | EMC7 (UniProt Q9NPA0) | inactive: 0.02
49 | EMC6 (UniProt Q9BV81) | inactive: -0.024
50 | EIF2D (UniProt P41214) | inactive: 0.033
51 | EIF2S3 (UniProt P41091) | inactive: -0.054
52 | ELF2 (UniProt Q15723) | inactive: -0.013
53 | ERH (UniProt P84090) | inactive: -0.042
54 | EPHX2 (UniProt P34913) | inactive: -0.002

Row | Target | log2 fold change
55 | EPS15L1 isoform 2 (UniProt Q9UBC2) | inactive: -0.009
56 | ERCC4 (UniProt Q92889) | inactive: 0.101
57 | ERCC3 (UniProt P19447) | inactive: 0.013
58 | EPPK1 (UniProt P58107) | inactive: 0.032
59 | EIF6 (UniProt P56537) | inactive: -0.057
60 | ENSA isoform 3 (UniProt O43768) | inactive: 0.03
61 | EMP3 (UniProt P54852) | inactive: 0.009
62 | EIF4E isoform 2 (UniProt P06730) | inactive: -0.034
63 | ENTPD5 (UniProt O75356) | inactive: -0.062
64 | EPRS (UniProt P07814) | inactive: 0.003
65 | EIF2B4 isoform 2 (UniProt Q9UI10) | inactive: 0.035
66 | EMC4 (UniProt Q5J8M3) | inactive: 0.089
67 | ELP2 isoform 6 (UniProt Q6IA86) | inactive: 0.008
68 | ENGASE (UniProt Q8NFI3) | inactive: -0.011
69 | ENPP3 (UniProt O14638) | inactive: 0.029
70 | ENDOG (UniProt Q14249) | inactive: -0.007
71 | EPN1 (UniProt Q9Y6I3) | inactive: -0.014
72 | EMD (UniProt P50402) | inactive: -0.02
